From ChEMBL document CHEMBL5532667 (J Med Chem, 2024) come the findings set out here.

Chains of the proteins cited; added tags and fusions are not shown. Lines headed by an entry give the natural chain unless they say otherwise; changes in a name come on top.
UniProt P10635, whole entry: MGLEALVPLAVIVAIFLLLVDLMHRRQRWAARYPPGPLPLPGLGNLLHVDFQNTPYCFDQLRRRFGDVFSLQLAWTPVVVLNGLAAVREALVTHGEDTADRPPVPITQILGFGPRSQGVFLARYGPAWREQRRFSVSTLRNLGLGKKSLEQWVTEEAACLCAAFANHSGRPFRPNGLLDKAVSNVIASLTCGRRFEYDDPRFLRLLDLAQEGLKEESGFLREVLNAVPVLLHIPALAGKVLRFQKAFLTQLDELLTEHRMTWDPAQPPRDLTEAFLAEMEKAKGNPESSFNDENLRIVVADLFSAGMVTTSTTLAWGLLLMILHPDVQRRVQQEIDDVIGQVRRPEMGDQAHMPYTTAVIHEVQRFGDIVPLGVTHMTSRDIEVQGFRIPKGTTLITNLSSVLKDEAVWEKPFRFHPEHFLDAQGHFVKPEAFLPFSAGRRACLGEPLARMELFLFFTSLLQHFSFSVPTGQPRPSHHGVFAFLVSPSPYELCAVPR
UniProt P11712, whole entry: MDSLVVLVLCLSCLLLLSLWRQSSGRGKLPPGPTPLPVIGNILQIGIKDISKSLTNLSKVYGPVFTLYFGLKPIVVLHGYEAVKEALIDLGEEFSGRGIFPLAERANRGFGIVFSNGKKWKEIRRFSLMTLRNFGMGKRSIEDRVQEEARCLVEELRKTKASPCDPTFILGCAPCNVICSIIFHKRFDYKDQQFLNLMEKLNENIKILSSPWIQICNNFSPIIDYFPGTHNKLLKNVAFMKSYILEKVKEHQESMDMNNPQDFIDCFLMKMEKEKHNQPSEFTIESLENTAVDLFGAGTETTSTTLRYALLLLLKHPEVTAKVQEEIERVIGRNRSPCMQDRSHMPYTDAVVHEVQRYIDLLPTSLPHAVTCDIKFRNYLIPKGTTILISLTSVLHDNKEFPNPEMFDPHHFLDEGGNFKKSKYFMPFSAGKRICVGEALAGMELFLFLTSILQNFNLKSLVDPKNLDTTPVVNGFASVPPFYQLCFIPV
UniProt Q12809: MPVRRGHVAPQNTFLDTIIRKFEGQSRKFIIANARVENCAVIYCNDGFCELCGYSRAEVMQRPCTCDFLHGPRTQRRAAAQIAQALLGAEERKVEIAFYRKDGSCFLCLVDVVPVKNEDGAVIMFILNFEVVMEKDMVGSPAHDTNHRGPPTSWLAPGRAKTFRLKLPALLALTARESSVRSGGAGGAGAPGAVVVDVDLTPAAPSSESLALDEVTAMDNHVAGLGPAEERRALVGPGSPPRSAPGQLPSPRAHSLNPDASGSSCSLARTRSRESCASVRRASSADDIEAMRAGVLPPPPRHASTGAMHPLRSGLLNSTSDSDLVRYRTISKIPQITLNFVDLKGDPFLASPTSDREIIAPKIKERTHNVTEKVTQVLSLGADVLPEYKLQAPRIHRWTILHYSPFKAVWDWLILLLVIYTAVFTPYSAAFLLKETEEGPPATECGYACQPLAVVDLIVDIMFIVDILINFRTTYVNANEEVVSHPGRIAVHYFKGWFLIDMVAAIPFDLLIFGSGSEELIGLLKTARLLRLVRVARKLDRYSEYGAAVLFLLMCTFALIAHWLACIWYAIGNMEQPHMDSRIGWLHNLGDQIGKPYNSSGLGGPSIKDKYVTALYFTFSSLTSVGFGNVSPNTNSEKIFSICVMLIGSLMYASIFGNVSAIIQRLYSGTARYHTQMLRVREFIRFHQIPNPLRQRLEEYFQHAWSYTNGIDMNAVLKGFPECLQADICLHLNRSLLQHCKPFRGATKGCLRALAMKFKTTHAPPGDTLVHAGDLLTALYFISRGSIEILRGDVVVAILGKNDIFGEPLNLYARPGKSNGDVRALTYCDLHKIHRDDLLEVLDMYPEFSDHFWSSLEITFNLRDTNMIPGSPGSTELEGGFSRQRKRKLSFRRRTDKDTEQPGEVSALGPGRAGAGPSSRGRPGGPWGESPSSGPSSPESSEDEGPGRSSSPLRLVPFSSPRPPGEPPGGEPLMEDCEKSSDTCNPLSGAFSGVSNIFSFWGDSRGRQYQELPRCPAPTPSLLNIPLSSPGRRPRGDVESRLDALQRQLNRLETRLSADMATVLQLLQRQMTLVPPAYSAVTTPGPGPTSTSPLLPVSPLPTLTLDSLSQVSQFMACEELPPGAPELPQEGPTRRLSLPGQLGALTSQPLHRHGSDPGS

One may read the IC50 as the midpoint of a concentration-inhibition curve. The low end stands for greater potency in that assay, the high end for weaker potency in that assay.

Structures are written as SMILES.

The target of one experiment is Cytochrome P450 2D6 (Homo sapiens, UniProt P10635).
The next experiment addresses Cytochrome P450 2C9 (Homo sapiens, UniProt P11712).
In experiment [1] the target is Voltage-gated inwardly rectifying potassium channel KCNH2 (Homo sapiens, UniProt Q12809).

As for `C[C@](O)(CN1CC2CC(C1)N2c1ccc(C#N)cc1)C(=O)Nc1cnc(C#N)c(C(F)(F)F)c1`, the IC50 is 2.72 µM on Cytochrome P450 2D6, 10.8 µM on Cytochrome P450 2C9 and 20.1 µM in experiment [1].
